Test results reported in publication PMC7371716.
Read-outs that look alike come from different tables or passages of the source. These are yes or no findings as the source states them, for the method shown. In cells and extracts the contact can be indirect. A yes stands for co-enrichment or nearness to the bait. Other partners may have been found. Blank lines part the entries; values can stand above or below the molecule they belong to.

Chains of the proteins cited; added tags and fusions are not shown.
UniProt P51149: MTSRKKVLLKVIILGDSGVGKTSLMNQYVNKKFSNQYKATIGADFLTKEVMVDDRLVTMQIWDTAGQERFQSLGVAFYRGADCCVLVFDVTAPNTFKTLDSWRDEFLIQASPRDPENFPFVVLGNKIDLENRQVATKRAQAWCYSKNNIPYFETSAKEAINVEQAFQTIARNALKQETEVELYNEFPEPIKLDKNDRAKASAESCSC

Key:
Assay in all cases: affinity purification with mass spectrometry; cells crosslinked with 500 uM DSP, lysed in 150 mM NaCl, 50 mM Tris-Cl pH7.5, 1% sodium-deoxycholate, 0.1% SDS, 1% NP-40, 1 mM EDTA; endogenous PDZD8 or Protrudin immunopurified with 2 ug antibody and protein G magnetic microbeads at 4 °C; control without antibody; label-free quantification; HCT116, HEK293 and human fibroblasts
[1] = target: T1, Protrudin (endogenous) (human (endogenous in HCT116 and HEK293)) (UniProt Q5T4F4)
T1 sequence: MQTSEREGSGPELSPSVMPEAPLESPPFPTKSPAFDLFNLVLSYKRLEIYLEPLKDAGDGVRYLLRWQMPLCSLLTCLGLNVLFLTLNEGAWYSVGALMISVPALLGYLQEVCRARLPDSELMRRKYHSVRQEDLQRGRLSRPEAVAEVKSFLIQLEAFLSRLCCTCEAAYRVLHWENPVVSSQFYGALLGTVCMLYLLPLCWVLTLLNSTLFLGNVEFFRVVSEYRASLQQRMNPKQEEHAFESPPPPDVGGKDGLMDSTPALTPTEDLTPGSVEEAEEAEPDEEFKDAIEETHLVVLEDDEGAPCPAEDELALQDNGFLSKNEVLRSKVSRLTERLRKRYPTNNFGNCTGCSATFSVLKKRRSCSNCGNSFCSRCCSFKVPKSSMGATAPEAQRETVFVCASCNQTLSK

[2] = target: T1, Protrudin (endogenous) (human (endogenous in HCT116 and HEK293)); remark: listed apart in the source
[3] = target: T2, PDZD8 (endogenous) (human (endogenous in HCT116 and human fibroblasts)) (UniProt Q8NEN9)
T2 sequence: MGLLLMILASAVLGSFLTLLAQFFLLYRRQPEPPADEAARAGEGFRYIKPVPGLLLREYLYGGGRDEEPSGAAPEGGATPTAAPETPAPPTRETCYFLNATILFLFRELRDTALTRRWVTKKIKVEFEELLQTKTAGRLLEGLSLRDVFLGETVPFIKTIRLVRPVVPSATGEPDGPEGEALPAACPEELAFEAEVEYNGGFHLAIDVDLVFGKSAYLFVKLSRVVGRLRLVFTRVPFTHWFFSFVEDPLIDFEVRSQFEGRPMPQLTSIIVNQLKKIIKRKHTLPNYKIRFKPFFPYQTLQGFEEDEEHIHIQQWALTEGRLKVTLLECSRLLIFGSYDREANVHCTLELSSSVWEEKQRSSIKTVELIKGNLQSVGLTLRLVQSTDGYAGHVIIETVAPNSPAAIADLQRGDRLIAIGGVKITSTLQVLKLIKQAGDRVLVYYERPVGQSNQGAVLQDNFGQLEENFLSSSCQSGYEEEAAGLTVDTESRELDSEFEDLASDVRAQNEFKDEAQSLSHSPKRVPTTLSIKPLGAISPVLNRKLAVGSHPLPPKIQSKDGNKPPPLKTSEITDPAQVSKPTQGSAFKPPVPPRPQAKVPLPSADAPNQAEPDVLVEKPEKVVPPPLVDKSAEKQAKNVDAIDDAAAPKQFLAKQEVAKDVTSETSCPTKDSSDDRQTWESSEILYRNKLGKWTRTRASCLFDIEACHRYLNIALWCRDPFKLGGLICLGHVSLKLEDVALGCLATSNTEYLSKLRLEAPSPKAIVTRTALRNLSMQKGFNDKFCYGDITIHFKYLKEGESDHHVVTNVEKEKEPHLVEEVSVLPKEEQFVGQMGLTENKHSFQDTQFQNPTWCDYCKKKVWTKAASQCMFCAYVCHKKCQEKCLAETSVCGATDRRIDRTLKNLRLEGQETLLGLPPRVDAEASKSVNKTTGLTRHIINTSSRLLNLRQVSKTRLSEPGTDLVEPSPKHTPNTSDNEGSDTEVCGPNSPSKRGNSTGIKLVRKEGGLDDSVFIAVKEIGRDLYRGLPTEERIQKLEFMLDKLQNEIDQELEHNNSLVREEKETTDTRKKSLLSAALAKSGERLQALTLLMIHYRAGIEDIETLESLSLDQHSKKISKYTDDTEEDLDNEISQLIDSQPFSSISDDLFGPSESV

binding [1]: binds
Molecule: Rab7 (endogenous) (from UniProt P51149 1-207)

binding [2]: binds
B1: PDZD8 (endogenous) (protein, UniProt Q8NEN9 1-1154)
chain: T2 sequence

binding [3]: binds
B2: Protrudin (endogenous) (protein, UniProt Q5T4F4 1-411)
chain: T1 sequence
